The supplement of paper PMC8728848
The other results are listed elsewhere or left out.

Experiments:
Assay in all cases: glycan array binding signal (z-score within array); higher = stronger binding
Conditions in all cases: glycan notation: IUPAC condensed, linker removed
[1] = molecular target: Fuc(a1-2)[Gal(a1-3)]Gal(b1-4)GlcNAc(b1-2)Man(a1-3)[Fuc(a1-2)[Gal(a1-3)]Gal(b1-4)GlcNAc(b1-2)Man(a1-6)]Man(b1-4)GlcNAc(b1-4)GlcNAc
Summary of the method: (§1)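 Negative Z-scores can be read as non-binding. The Z-score is calculated within each array and then averaged across arrays of one protein sequence at different concentrations or buffers and across linkers. Arrays, 3228 in all, were curated from the Consortium for Functional Glycomics database and kept only where the protein sequence was available.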

[2] = molecular target: Fuc(a1-2)[Gal(a1-3)]Gal(b1-4)GlcNAc(b1-2)Man(a1-3)[Fuc(a1-2)[Gal(a1-3)]Gal(b1-4)GlcNAc(b1-2)Man(a1-6)]Man(b1-4)GlcNAc(b1-4)[Fuc(a1-6)]GlcNAc
Summary of the method: as §1

[3] = molecular target: Fuc(a1-2)[Gal(a1-3)]Gal(b1-4)GlcNAc(b1-3)GalNAc
Summary of the method: as §1

[4] = molecular target: Fuc(a1-2)[Gal(a1-3)]Gal(b1-4)GlcNAc(b1-3)[Fuc(a1-2)[Gal(a1-3)]Gal(b1-4)GlcNAc(b1-6)]GalNAc
Summary of the method: as §1

[5] = molecular target: Fuc(a1-2)[Gal(a1-3)]Gal(b1-4)GlcNAc(b1-6)GalNAc
Summary of the method: as §1

[6] = molecular target: Fuc(a1-2)[Gal(a1-3)]Gal(b1-4)[Fuc(a1-3)]Glc
Summary of the method: as §1

[7] = molecular target: Fuc(a1-2)[Gal(a1-3)]Gal(b1-4)[Fuc(a1-3)]GlcNAc
Summary of the method: as §1

[8] = molecular target: Fuc(a1-2)[Gal(a1-3)]Gal(b1-4)[Fuc(a1-3)]GlcNAc(b1-3)GalNAc
Summary of the method: as §1

[9] = molecular target: Fuc(a1-2)[Gal(a1-4)]Gal(b1-4)GlcNAc
Summary of the method: as §1

[10] = molecular target: Fuc(a1-2)[GalNAc(a1-3)]Gal
Summary of the method: as §1

[11] = molecular target: Fuc(a1-2)[GalNAc(a1-3)]Gal(b1-3)GalNAc(a1-3)[Fuc(a1-2)]Gal(b1-4)GlcNAc
Summary of the method: as §1

[12] = molecular target: Fuc(a1-2)[GalNAc(a1-3)]Gal(b1-3)GalNAc(b1-3)Gal(a1-4)Gal(b1-4)Glc
Summary of the method: as §1

[13] = molecular target: Fuc(a1-2)[GalNAc(a1-3)]Gal(b1-3)GlcNAc
Summary of the method: as §1

[14] = molecular target: Fuc(a1-2)[GalNAc(a1-3)]Gal(b1-3)GlcNAc(b1-2)Man(a1-3)[Fuc(a1-2)[GalNAc(a1-3)]Gal(b1-3)GlcNAc(b1-2)Man(a1-6)]Man(b1-4)GlcNAc(b1-4)GlcNAc
Summary of the method: as §1

[15] = molecular target: Fuc(a1-2)[GalNAc(a1-3)]Gal(b1-3)GlcNAc(b1-2)Man(a1-3)[Fuc(a1-2)[GalNAc(a1-3)]Gal(b1-3)GlcNAc(b1-2)Man(a1-6)]Man(b1-4)GlcNAc(b1-4)[Fuc(a1-6)]GlcNAc
Summary of the method: as §1

[16] = molecular target: Fuc(a1-2)[GalNAc(a1-3)]Gal(b1-3)GlcNAc(b1-3)GalNAc
Summary of the method: as §1

[17] = molecular target: Fuc(a1-2)[GalNAc(a1-3)]Gal(b1-3)GlcNAc(b1-6)GalNAc
Summary of the method: as §1

[18] = molecular target: Fuc(a1-2)[GalNAc(a1-3)]Gal(b1-4)Glc
Summary of the method: as §1

[19] = molecular target: Fuc(a1-2)[GalNAc(a1-3)]Gal(b1-4)GlcNAc
Summary of the method: as §1

[20] = molecular target: Fuc(a1-2)[GalNAc(a1-3)]Gal(b1-4)GlcNAc(b1-2)Man
Summary of the method: as §1

[21] = molecular target: Fuc(a1-2)[GalNAc(a1-3)]Gal(b1-4)GlcNAc(b1-2)Man(a1-3)[Fuc(a1-2)[GalNAc(a1-3)]Gal(b1-4)GlcNAc(b1-2)Man(a1-6)]Man(b1-4)GlcNAc(b1-4)GlcNAc
Summary of the method: as §1

[22] = molecular target: Fuc(a1-2)[GalNAc(a1-3)]Gal(b1-4)GlcNAc(b1-2)Man(a1-3)[Fuc(a1-2)[GalNAc(a1-3)]Gal(b1-4)GlcNAc(b1-2)Man(a1-6)]Man(b1-4)GlcNAc(b1-4)[Fuc(a1-6)]GlcNAc
Summary of the method: as §1

[23] = molecular target: Fuc(a1-2)[GalNAc(a1-3)]Gal(b1-4)GlcNAc(b1-3)Gal(b1-4)GlcNAc
Summary of the method: as §1

[24] = molecular target: Fuc(a1-2)[GalNAc(a1-3)]Gal(b1-4)GlcNAc(b1-3)Gal(b1-4)GlcNAc(b1-3)Gal(b1-4)GlcNAc
Summary of the method: as §1

[25] = molecular target: Fuc(a1-2)[GalNAc(a1-3)]Gal(b1-4)GlcNAc(b1-3)GalNAc
Summary of the method: as §1

[26] = molecular target: Fuc(a1-2)[GalNAc(a1-3)]Gal(b1-4)GlcNAc(b1-3)[Fuc(a1-2)[GalNAc(a1-3)]Gal(b1-4)GlcNAc(b1-6)]GalNAc
Summary of the method: as §1

[27] = molecular target: Fuc(a1-2)[GalNAc(a1-3)]Gal(b1-4)GlcNAc(b1-6)GalNAc
Summary of the method: as §1

[28] = molecular target: Fuc(a1-2)[GalNAc(a1-3)]Gal(b1-4)[Fuc(a1-3)]GlcNAc
Summary of the method: as §1

[29] = molecular target: Fuc(a1-2)[GalNAc(a1-3)]Gal(b1-4)[Fuc(a1-3)]GlcNAc(b1-3)GalNAc
Summary of the method: as §1

[30] = molecular target: Fuc(a1-2)[GalNAc(a1-4)]Gal(b1-4)GlcNAc
Summary of the method: as §1

[31] = molecular target: Fuc(a1-2)[GalNAc(b1-3)]Gal
Summary of the method: as §1

Fuc(a1-3)GlcNAc = molecular target: Fuc(a1-3)GlcNAc
Summary of the method: as §1

[32] = molecular target: Fuc(a1-3)[Gal(b1-4)]Glc6S
Summary of the method: as §1

[33] = molecular target: Fuc(a1-3)[Gal(b1-4)]GlcNAc
Summary of the method: as §1

[34] = molecular target: Fuc(a1-3)[Gal(b1-4)]GlcNAc(b1-2)Man
Summary of the method: as §1

[35] = molecular target: Fuc(a1-3)[Gal(b1-4)]GlcNAc(b1-2)Man(a1-3)[Fuc(a1-3)[Gal(b1-4)]GlcNAc(b1-2)Man(a1-6)]Man(b1-4)GlcNAc(b1-4)GlcNAc
Summary of the method: as §1

[36] = molecular target: Fuc(a1-3)[Gal(b1-4)]GlcNAc(b1-2)Man(a1-3)[Fuc(a1-3)[Gal(b1-4)]GlcNAc(b1-2)Man(a1-6)]Man(b1-4)GlcNAc(b1-4)[Fuc(a1-6)]GlcNAc
Summary of the method: as §1

B1: RsaA-N-term (Caulobacter crescentus), P35828 (protein)
chain: MAYTTAQLVTAYTNANLGKAPDAATTLTLDAYATQTQTGGLSDAAALTNTLKLVNSTTAVAIQTYQFFTGVAPSAAGLDFLVDSTTNTNDLNDAYYSKFAQENRFINFSINLATGAGAGATAFAAAYTGVSYAQTVATAYDKIIGNAVATAAGVDVAAAVAFLSRQANIDYLTAFVRANTPFTAAADIDLAVKAALIGTILNAATVSGIGGYATATAAMINDLSDGALSTDNAAGVNLFTAYPSSGVSGSTLSLTTGTDTLTGTANNDTFVAGEVAGDGSGWSHPQFEKGG
glycan array binding signal (z-score) [1]: -0.039
glycan array binding signal (z-score) [2]: -0.939
glycan array binding signal (z-score) [3]: -0.285
glycan array binding signal (z-score) [4]: -0.404
glycan array binding signal (z-score) [5]: -0.728
glycan array binding signal (z-score) [6]: -0.986
glycan array binding signal (z-score) [7]: 1.78
glycan array binding signal (z-score) [8]: 0.114
glycan array binding signal (z-score) [9]: -0.479
glycan array binding signal (z-score) [10]: -0.285
glycan array binding signal (z-score) [11]: 0.134
glycan array binding signal (z-score) [12]: -0.11
glycan array binding signal (z-score) [13]: -0.279
glycan array binding signal (z-score) [14]: -0.204
glycan array binding signal (z-score) [15]: 0.922
glycan array binding signal (z-score) [16]: -0.512
glycan array binding signal (z-score) [17]: -0.447
glycan array binding signal (z-score) [18]: 0.384
glycan array binding signal (z-score) [19]: 0.063
glycan array binding signal (z-score) [20]: 0.442
glycan array binding signal (z-score) [21]: 1.69
glycan array binding signal (z-score) [22]: 0.029
glycan array binding signal (z-score) [23]: 0.938
glycan array binding signal (z-score) [24]: 0.016
glycan array binding signal (z-score) [25]: -0.446
glycan array binding signal (z-score) [26]: -1.55
glycan array binding signal (z-score) [27]: 0.045
glycan array binding signal (z-score) [28]: 0.069
glycan array binding signal (z-score) [29]: -1.19
glycan array binding signal (z-score) [30]: -1.27
glycan array binding signal (z-score) [31]: -1.19
glycan array binding signal (z-score) (Fuc(a1-3)GlcNAc): -0.979
glycan array binding signal (z-score) [32]: 0.305
glycan array binding signal (z-score) [33]: -0.567
glycan array binding signal (z-score) [34]: 0.259
glycan array binding signal (z-score) [35]: -0.505
glycan array binding signal (z-score) [36]: 0.314
